Binding screen against folded nucleic acids

Oligonucleotides screened, 5′ to 3′:
TPP: TPP riboswitch RNA three-way junction, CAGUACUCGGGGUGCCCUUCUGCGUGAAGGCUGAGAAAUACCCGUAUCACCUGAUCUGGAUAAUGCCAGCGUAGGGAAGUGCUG. Hit rate about 0.7% of about 24,000 compounds.
SAM-II: SAM-II riboswitch RNA pseudoknot, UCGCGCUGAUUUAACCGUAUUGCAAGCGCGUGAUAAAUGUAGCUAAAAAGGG. Hit rate about 1% of about 21,000 compounds.
PreQ1: PreQ1 riboswitch RNA pseudoknot, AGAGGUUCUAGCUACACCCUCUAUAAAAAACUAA. From B. subtilis. Hit rate about 0.7% of about 24,000 compounds.

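Each compound is printed as two spots on a slide made to bind it covalently, so it has no test concentration; the read-out is fluorescence of the bound, labelled oligonucleotide. The data file lists only calls. An earlier report of the laboratory on the PreQ1, TPP and SAM-II riboswitches (doi:10.1038/s41467-019-09493-3) used 1 µM RNA for 2 h and required a mean Z-score above 3 (spot signal-to-noise against the whole library), a score well above that on a control array, and duplicate spots agreeing (coefficient of variation under 100); it then also set aside compounds that hit other targets, which this list keeps. The cut-offs behind this list may differ. The calls come from the array alone, and fixing a compound to the slide can hide its binding.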
Key: hit = hit, no hit = tested without a hit.
Compounds were drawn at random from those tested, without regard to their results.
A dash means that no call is listed here.

Compound	TPP	SAM-II	PreQ1
Cc1ccc(C)c(OCc2nnc(N)s2)c1	no hit	no hit	no hit
CNC(=O)C(C)(Nc1ccc(C)cc1)c1ccccc1 (centres undefined)	no hit	no hit	no hit
Cc1cccc(S(=O)(=O)N2CCN(c3cc(C)nc(NC4CCCCC4)n3)CC2)c1	no hit	-	no hit
COc1ccc(NC(=O)c2sc3nc(C)ccc3c2N)cc1	no hit	no hit	no hit
CCn1c(C(=O)O)c(CNCCC2=CCCCC2)c2ccccc21	no hit	-	no hit
Nc1nc(N)nc(-c2cc(Cl)ccc2Cl)n1.O=C(O)C=CC(=O)O	no hit	no hit	no hit
CC1CCc2c(sc(N)c2C(=O)Nc2ccc(Br)cc2)C1 (centres undefined)	no hit	no hit	no hit
NC(=O)c1nnn(Cc2cc(Cl)c(C(=O)c3ccc(Cl)cc3)c(Cl)c2)c1N	no hit	no hit	no hit
O=C(c1cccc(-n2cccn2)c1)N1CC[C@@H](O)C1	no hit	no hit	no hit
COc1cccc(OCC(O)CN2CCN(c3ccc(Cl)cc3)CC2)c1 (centres undefined)	no hit	no hit	no hit
COc1ccc(-c2noc(-c3nnn(-c4ccc(C(C)C)cc4)c3N)n2)cc1	no hit	-	no hit
Nc1nonc1NC(=O)c1ccc(Cl)cc1	no hit	no hit	no hit
C=C1C(=O)[C@@]23C(CC[C@@H]1[C@H]2O)[C@@]12CO[C@]3(O)[C@@H](O)[C@@H]1C(C)(C)CC[C@@H]2O (some centres undefined)	no hit	no hit	no hit
Cc1ccc(S(=O)(=O)Nc2nc3ccccc3nc2Nc2ccc(F)cc2)cc1	no hit	no hit	no hit
COc1cc(CNCCc2ccccc2)ccc1OCc1ccc2c(c1)n(C)c(=O)n2C	no hit	-	no hit
COCCN(C)C[C@@H]1CN(S(=O)(=O)c2cnn(C)c2)C[C@@H]1CO	no hit	no hit	no hit
O=C(NC(CO)C(=O)O)c1cncc(Br)c1 (centres undefined)	no hit	no hit	no hit
CCCn1c(CCNC(=O)CCCO)nc2ccccc21	no hit	-	no hit
Cc1ccccc1-c1noc(-c2nnn(-c3cccc(C(F)(F)F)c3)c2N)n1	no hit	-	no hit
FC(F)(F)c1cccc(-c2ccc(CNC3CC3)o2)c1	no hit	-	no hit
OC[C@H]1CN(Cc2ccc(-c3nn[nH]n3)cc2)C[C@H]1CN1CCCC1	no hit	no hit	no hit
CC(C)CC(Nc1ncnc2c1oc1ccccc12)C(=O)O (centres undefined)	no hit	no hit	no hit
Cc1cc2c(N3CCC(NC(C)c4n[nH]c(=O)[nH]4)CC3)ncnc2s1 (centres undefined)	no hit	no hit	no hit
Cn1c(=O)c(NC2CCCCC2)c2c3c(cccc31)C(=O)c1ccccc1-2	no hit	no hit	no hit
COc1cccc(-c2cccc(CNC3CC3)c2)c1OC	no hit	no hit	no hit
COc1cc(CNC(C)(C)CO)cc(Cl)c1OCC(N)=O	no hit	no hit	no hit
Nc1cccc(S(=O)(=O)NCC2CCCO2)c1 (centres undefined)	no hit	-	no hit
COc1ccc(CNc2ncnc3scc(-c4ccccc4)c23)cc1	no hit	-	no hit
COc1ccc(CN2C(=O)O[C@@H]3CN(C(CO)CO)C[C@@H]32)cc1OC	no hit	no hit	no hit
CC(C)Nc1ncnc2onc(-c3cccc(Cl)c3)c12	no hit	no hit	no hit
Cn1c2ccccc2c2cc(CC(=O)N3C[C@H](C4CC4)[C@@H](N)C3)ccc21	no hit	no hit	no hit
COc1ccc2c(c1)cc(C(=O)NCCOCCO)n2C	no hit	no hit	no hit
O=C(NCCCNc1cccnc1)c1cccc(-n2cccn2)c1	no hit	no hit	no hit
CCCCn1cnc2cc(NCc3ccccc3Cl)ccc21	no hit	no hit	no hit
COc1ncccc1-c1ccc(N)nc1	no hit	no hit	no hit
Cc1ccc(Nc2cc(N3CCN(S(=O)(=O)c4cccc(C)c4)CC3)nc(C)n2)cc1	no hit	-	no hit
COc1cc2c(cc1OC)CN(C(=O)C1CNCCO1)CC2 (centres undefined)	no hit	no hit	no hit
Cc1cc(C)nc(SCC(O)COc2ccc(Cl)cc2)n1 (centres undefined)	no hit	no hit	no hit
C[C@@H](Oc1ccc2[nH]nc(C=Cc3cnn(CCO)c3)c2c1)c1c(Cl)cncc1Cl	no hit	no hit	no hit
Cc1cc(C[C@@H]2COC[C@@H]2NC(=O)CSc2nc(N)n[nH]2)on1	no hit	no hit	no hit
c1ccc2oc(N3CCC(NCCSc4cnn[nH]4)CC3)nc2c1	no hit	no hit	no hit
C(=Cc1ccco1)CN1CC[C@H]2CC[C@@H](C1)N2	no hit	no hit	no hit
O=C(NC[C@H]1CCCN1)c1ccccc1-n1cnnc1	no hit	no hit	no hit
COC(=O)C1=C(N)OC2=C(C(=O)CC(C)(C)C2)C1c1ccc(SC)cc1 (centres undefined)	no hit	no hit	no hit

For reference, 4 entries once more:

Compound	TPP	SAM-II	PreQ1
NC(=O)c1nnn(Cc2cc(Cl)c(C(=O)c3ccc(Cl)cc3)c(Cl)c2)c1N	no hit	no hit	no hit
COc1ccc(CN2C(=O)O[C@@H]3CN(C(CO)CO)C[C@@H]32)cc1OC	no hit	no hit	no hit
Cn1c2ccccc2c2cc(CC(=O)N3C[C@H](C4CC4)[C@@H](N)C3)ccc21	no hit	no hit	no hit
CC1CCc2c(sc(N)c2C(=O)Nc2ccc(Br)cc2)C1 (centres undefined)	no hit	no hit	no hit

Calls as published in the ROBIN set (doi:10.1002/anie.202211358).